The values below come from paper PMC7819943, “Rice protein-binding microarrays: a tool to detect cis-acting elements near promoter regions in rice”.

This is one part of the list.

The assay deals with T1, OsSMF1 (Oryza sativa, UniProt Q6ZLB0 1-436).
T1 sequence: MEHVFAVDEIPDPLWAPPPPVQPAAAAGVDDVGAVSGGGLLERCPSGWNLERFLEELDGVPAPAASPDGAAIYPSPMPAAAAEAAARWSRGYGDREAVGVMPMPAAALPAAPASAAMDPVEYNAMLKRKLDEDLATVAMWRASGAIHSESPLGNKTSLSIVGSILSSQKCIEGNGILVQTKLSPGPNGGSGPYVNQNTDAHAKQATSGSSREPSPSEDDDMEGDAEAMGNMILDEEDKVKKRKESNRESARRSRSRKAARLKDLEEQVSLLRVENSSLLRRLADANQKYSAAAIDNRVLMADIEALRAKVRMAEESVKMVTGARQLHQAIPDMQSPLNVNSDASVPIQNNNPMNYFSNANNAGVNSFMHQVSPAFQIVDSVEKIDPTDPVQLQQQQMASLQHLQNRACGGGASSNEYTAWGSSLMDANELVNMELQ
The assay can be described thus: protein-binding microarray (RPBM); PBS, 2% BSA, 51.3 ng/ul salmon testes DNA, 50 uM zinc acetate, 200 nM TF, 25 C, 1 h; high values mean tight binding. The note with it: protein: recombinant; tags: N-terminal polyhistidine and DsRed monomer fusion (pET32a); chain copies: 2; label: CyDye5-dUTP incorporated in the synthesized complementary strand; 3' TTTTT single-stranded linker to array surface; dsDNA, one strand shown. The procedure, abridged: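 A custom Agilent array was converted to double-stranded form by primer extension with Cy5-dUTP and blocked with 2% BSA. Protein at 200 nM in PBS with 2% BSA, salmon testes DNA and 50 µM zinc acetate was applied for 1 h at 25 °C, followed by washing. The proteins were polyhistidine–DsRed N-terminal fusions of transcription factors, expressed in E. coli BL21-CodonPlus and Ni–NTA-purified. The binding signal is per-feature fluorescence intensity (arbitrary units) from an Axon 4000B scanner.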
As to “ATCGCACTTCACGCGCCAAATTAGTTAGTCGAAGCGTCAACGGAGTCACCTAGTGCAG”, the binding signal was 3180 fluorescence intensity (a.u.).
With “AACTGCAACTAATAAAGCCAGGTCCGGTCCCACGTCCCAGCGGAGTCACCTAGTGCAG”, the binding signal is 3260 fluorescence intensity (a.u.).
Regarding “GGCCACGTCAATATGTCTTCACGTGTGTTTTCTCCTTTAACGGAGTCACCTAGTGCAG”, the binding signal is 10400 fluorescence intensity (a.u.).
In the case of “GGGCGTGCTCCGTGTAGGTGACGGCGTCGCGGATGACGTTCGGAGTCACCTAGTGCAG”, the binding signal is 5500 fluorescence intensity (a.u.).
Take “TCTATCTGGCTTCTGACATCACACTCACCTAAATGTTGTTCGGAGTCACCTAGTGCAG”: the binding signal was 3660 fluorescence intensity (a.u.).
As for “AGCCACAAGATCAATACAAGCCAACATGCCCAACACACGTCGGAGTCACCTAGTGCAG”, the binding signal was 4330 fluorescence intensity (a.u.).
In the case of “AGCGATCGGCTTGCTGACTCGGATCCACCCGCTTCTCTGACGGAGTCACCTAGTGCAG” it was 14000 fluorescence intensity (a.u.); in that of “TAGTGACTAGTGATCACAGATCAGTACTATATAAAAGAGTCGGAGTCACCTAGTGCAG”, 13700 fluorescence intensity (a.u.); in that of “GCCTCGAGGGAGTCCCTGAGTGCGTGGACAACGTCTCCGACGGAGTCACCTAGTGCAG”, 5100 fluorescence intensity (a.u.).
Under “GATCCAAGAGTGGAGAAGGAGAGGGGTGGGGAGCCGGCGACGGAGTCACCTAGTGCAG” stands 3900 fluorescence intensity (a.u.).
As to “CCCACACCTGACAACCAATCACGTCTTGGTGGCCCACATCCGGAGTCACCTAGTGCAG”, the binding signal is 16900 fluorescence intensity (a.u.).
As to “CAGCTTCCGCAGGACAGCGCGAATGTCACCGACGGCTCAGCGGAGTCACCTAGTGCAG”, the binding signal was 3660 fluorescence intensity (a.u.).
On to “TGGATAAGGATGTGTGAGACGTGTGATCTTTACTTGTTGGCGGAGTCACCTAGTGCAG”, for which the binding signal was 3980 fluorescence intensity (a.u.).
In the case of “TTTTCTTAAAGAGATTTCTTATACGATTCCTTCTATATTTCGGAGTCACCTAGTGCAG”, the binding signal is 10600 fluorescence intensity (a.u.).
On to “CCACGCCTCCACCACCTCCGCATCACTAGCAAGCGCAAGCCGGAGTCACCTAGTGCAG”, for which the binding signal was 3610 fluorescence intensity (a.u.).
Consider “TGCGGGCCACCATGCTAGCTAGTTTCCCTAAAAGAATATTCGGAGTCACCTAGTGCAG”, for which the binding signal was 16500 fluorescence intensity (a.u.).
In the case of “AGTTGATCGCGGTCAAATCGTCACGTTAGTTGAACCCGGTCGGAGTCACCTAGTGCAG”, the binding signal is 3340 fluorescence intensity (a.u.).
In the case of “CGCTGACTTAGTTGCCACGTCAGACAAAACTGAGGTCAAACGGAGTCACCTAGTGCAG” it was 15100 fluorescence intensity (a.u.); in that of “AGTATATATATGGCCCAGCTAAATCTTCTGATAGGTGATGCGGAGTCACCTAGTGCAG”, 3220 fluorescence intensity (a.u.); in that of “CTATCCAAGAACAGCTTCATTTACAGAAACATTACCTACACGGAGTCACCTAGTGCAG”, 3150 fluorescence intensity (a.u.).
For “GGCGGCGGCGGCGGGGCGGCGTGGCGCCGAGGGAGGGGAACGGAGTCACCTAGTGCAG”, the binding signal is 4760 fluorescence intensity (a.u.).
In the case of “CTATCATATGTGTCACGTCATCTGGCTGTGGTACTACTGCCGGAGTCACCTAGTGCAG” it was 9860 fluorescence intensity (a.u.).
As for “TCTGATATGGCATTGACGTGACACTTACGTGGCAATTCGACGGAGTCACCTAGTGCAG”, the binding signal is 12500 fluorescence intensity (a.u.).
In the case of “GCTCCGGCTCCCGACGACGCCGAACCAGGTCACCTTCTTCCGGAGTCACCTAGTGCAG” it was 3150 fluorescence intensity (a.u.); in that of “GACCTTTGGGTAGGGGTGGGGATGGGGCGAAATTACTAAACGGAGTCACCTAGTGCAG”, 5610 fluorescence intensity (a.u.).
For “GTTCAAACTTTCCGAGTCAATCGGGAGGCGGAAGTACCTTCGGAGTCACCTAGTGCAG”, the binding signal is 3270 fluorescence intensity (a.u.).
In the case of “GGCATCTTCTCAAGGACAGGTGTATTGACAACCTAACAAACGGAGTCACCTAGTGCAG”, the binding signal was 3320 fluorescence intensity (a.u.).
On to “CCACCGGTGACACCAGCATCATCGTCGGTTTTCTCTCCCTCGGAGTCACCTAGTGCAG”, for which the binding signal is 3590 fluorescence intensity (a.u.).
In the case of “GAATTGGACATTTCTCGTAGGTGGCAATCGTAGTCCTAGGCGGAGTCACCTAGTGCAG” it was 6280 fluorescence intensity (a.u.); in that of “GACGATTTATAGGCGCGCCACGCATGGCGAGTTGGTCGCTCGGAGTCACCTAGTGCAG”, 5860 fluorescence intensity (a.u.); in that of “GTGCAGTAGCTTCGCAGCGTCACCCCAACCCAGCGCGGGTCGGAGTCACCTAGTGCAG”, 4100 fluorescence intensity (a.u.).
In the case of “ACGTTGCATTCTGTATGACACGTGTCTAGTCCTAATCTCACGGAGTCACCTAGTGCAG” it was 15800 fluorescence intensity (a.u.); in that of “GTCTGGTCGACCGCGAGTAGACCGCCCGTCGCCATTCTCCCGGAGTCACCTAGTGCAG”, 3290 fluorescence intensity (a.u.).
On to “GCTTCTCCCCGACACGCTCCACCGCCTCCGCCGCCTAGATCGGAGTCACCTAGTGCAG”, for which the binding signal was 3350 fluorescence intensity (a.u.).
Turning to “TTTTGTGCAATCAGAACCTGTCAGATGAAGCTGTTGTTGGCGGAGTCACCTAGTGCAG”, the binding signal was 3160 fluorescence intensity (a.u.).
As for “GCACAGCAAAGTGTGACGGGGCAGCTACCTTGCACAGGTCCGGAGTCACCTAGTGCAG”, the binding signal is 6850 fluorescence intensity (a.u.).
As to “TTTCATACACATACGTATTACATATTGCATATACCTATTTCGGAGTCACCTAGTGCAG”, the binding signal is 3670 fluorescence intensity (a.u.).
As for “GGGAATAACAATGGGAACGTCACCCCTTCCTGTACGGTTTCGGAGTCACCTAGTGCAG”, the binding signal is 5340 fluorescence intensity (a.u.).
“CAATTCTAAGAATGAACCTGTACACACGTCATCTGGGAAGCGGAGTCACCTAGTGCAG”: the binding signal was 11300 fluorescence intensity (a.u.).
Regarding “ACATACAGACACAGAAATACATAACAGAATAACCCAGTAGCGGAGTCACCTAGTGCAG”, the binding signal is 11800 fluorescence intensity (a.u.).
In the case of “GTGACGCGTACAGGTCAGTGAGTCACTCCCTGACAGGTGGCGGAGTCACCTAGTGCAG”, the binding signal is 6880 fluorescence intensity (a.u.).
As for “GCCAAGCAAACAGGGTGTAGAAAACTAGAAACCCTCGCAACGGAGTCACCTAGTGCAG”, the binding signal was 14200 fluorescence intensity (a.u.).
